PubChem BioAssay AID1259405 – NCATS | 2018

- Purpose: 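Mouse-designed siRNAs used to find CHO productivity engineering targets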 (primary screen)
- System: Chinese hamster CHO-K1 ovary cells with stable secreted eGFP expression
- Reagents: single siRNA against mouse genes, 0.8 pmol siRNA per well (2 µl of 400 nM stock)
- Time to read-out: 3 days
- Measurement: 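Per-well intracellular GFP measured by laser scanning cytometry, plus viability from ATP luminescence, each relative to plate median of non-targeting control wells, in %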
- Reading the numbers: GFP, % of control: higher = more GFP per well, higher productivity; viability (ATP), % of control: higher = more viable cells (more ATP)
- Call rule: 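Called active when intracellular GFP, relative to negative control, is at or above 120%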
Here is one part, drawn at random, of about 50,000 deposited reagents. Of all reagents, about 4,000 (8%) were called active. 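Mouse siRNA library applied to hamster cells; one well for each siRNA.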 Unmarked entries are inactive. Reagents against one gene are numbered here. No sequences are given here.

After knock-down of Cnmd (chondromodulin) #1, the screen gave GFP, % of control 54.2; viability (ATP), % of control 65.8.
With knock-down of Cnmd (chondromodulin) #2, the record shows GFP, % of control 50.6; viability (ATP), % of control 91.9.
Against Cnmd (chondromodulin) #3, the entry reads GFP, % of control 81.8; viability (ATP), % of control 91.2.
Against Dkk3 (dickkopf WNT signaling pathway inhibitor 3) #1, the values are GFP, % of control 82.5; viability (ATP), % of control 96.1.
With knock-down of Dkk3 (dickkopf WNT signaling pathway inhibitor 3) #2 the results were GFP, % of control 93; viability (ATP), % of control 127.
After knock-down of Dkk3 (dickkopf WNT signaling pathway inhibitor 3) #3 the results were GFP, % of control 24.7; viability (ATP), % of control 64.
Depletion of Garnl3 (GTPase activating RANGAP domain-like 3) #1 resulted in: GFP, % of control 88.5; viability (ATP), % of control 122.
For Garnl3 (GTPase activating RANGAP domain-like 3) #2, the values are GFP, % of control 79.4; viability (ATP), % of control 94.1.
For Garnl3 (GTPase activating RANGAP domain-like 3) #3, the values are GFP, % of control 88.2; viability (ATP), % of control 67.8.
Or1ad8 (olfactory receptor family 1 subfamily AD member 8) #1 showed GFP, % of control 39.7; viability (ATP), % of control 49.9.
With knock-down of Or1ad8 (olfactory receptor family 1 subfamily AD member 8) #2 the results were GFP, % of control 98.7; viability (ATP), % of control 68.2.
Against Or1ad8 (olfactory receptor family 1 subfamily AD member 8) #3 the deposit lists GFP, % of control 79; viability (ATP), % of control 117.
With knock-down of Gdpd5 (glycerophosphodiester phosphodiesterase domain containing 5) #1, the screen gave GFP, % of control 75.5; viability (ATP), % of control 91.
Gdpd5 (glycerophosphodiester phosphodiesterase domain containing 5) #2 scored GFP, % of control 90.6; viability (ATP), % of control 69.1.
Knock-down of Gdpd5 (glycerophosphodiester phosphodiesterase domain containing 5) #3 came out at: GFP, % of control 99.7; viability (ATP), % of control 52.3.
Depletion of Nectin1 (nectin cell adhesion molecule 1) #1 resulted in: GFP, % of control 108; viability (ATP), % of control 118.
With knock-down of Nectin1 (nectin cell adhesion molecule 1) #2, the screen gave GFP, % of control 102; viability (ATP), % of control 96.4.
Ly6g6d (lymphocyte antigen 6 family member G6D) #1 showed GFP, % of control 93.6; viability (ATP), % of control 76.3.
Against Ly6g6d (lymphocyte antigen 6 family member G6D) #2, the entry reads GFP, % of control 84.8; viability (ATP), % of control 97.2.
For Ly6g6d (lymphocyte antigen 6 family member G6D) #3, the entry reads GFP, % of control 98.7; viability (ATP), % of control 82.7.
Knock-down of Ambra1 (autophagy/beclin 1 regulator 1) #1 gave: GFP, % of control 88.2; viability (ATP), % of control 93.1.
After knock-down of Ambra1 (autophagy/beclin 1 regulator 1) #2, the record shows GFP, % of control 80; viability (ATP), % of control 42.8.
Ambra1 (autophagy/beclin 1 regulator 1) #3 scored GFP, % of control 65.7; viability (ATP), % of control 94.3.
Against Lmnb2 (lamin B2) #1, the entry reads GFP, % of control 123 (active); viability (ATP), % of control 75.4.
Against Lmnb2 (lamin B2) #2, the entry reads GFP, % of control 80.8; viability (ATP), % of control 99.4.
Cert1 (ceramide transporter 1) #1 showed GFP, % of control 112; viability (ATP), % of control 123.
Knock-down of Cert1 (ceramide transporter 1) #2 resulted in: GFP, % of control 78.6; viability (ATP), % of control 57.
For Cert1 (ceramide transporter 1) #3, the entry reads GFP, % of control 76.5; viability (ATP), % of control 62.4.
Depletion of Hycc2 (hyccin PI4KA lipid kinase complex subunit 2) #1 gave: GFP, % of control 56.5; viability (ATP), % of control 69.3.
Hycc2 (hyccin PI4KA lipid kinase complex subunit 2) #2 showed GFP, % of control 59.9; viability (ATP), % of control 81.8.
Hycc2 (hyccin PI4KA lipid kinase complex subunit 2) #3 scored GFP, % of control 120 (active); viability (ATP), % of control 134.
Zfp791 (zinc finger protein 791) #1 scored GFP, % of control 81.1; viability (ATP), % of control 64.9.
Zfp791 (zinc finger protein 791) #2 gave GFP, % of control 97.7; viability (ATP), % of control 113.
Knock-down of Zfp791 (zinc finger protein 791) #3 gave: GFP, % of control 42.7; viability (ATP), % of control 85.6.
Zfp35 (zinc finger protein 35) #1 showed GFP, % of control 74; viability (ATP), % of control 80.7.
Zfp35 (zinc finger protein 35) #2 showed GFP, % of control 67; viability (ATP), % of control 87.7.
Against Zfp35 (zinc finger protein 35) #3, the values are GFP, % of control 72.9; viability (ATP), % of control 72.
Silencing of Ttc13 (tetratricopeptide repeat domain 13) #1 came out at: GFP, % of control 36.6; viability (ATP), % of control 86.
Knock-down of Ttc13 (tetratricopeptide repeat domain 13) #2 resulted in: GFP, % of control 68.7; viability (ATP), % of control 95.5.
Ttc13 (tetratricopeptide repeat domain 13) #3 gave GFP, % of control 64.8; viability (ATP), % of control 57.7.
